# ± gives the standard deviation. Only a part is listed here, and it is no random draw. The uncertainty is large for many entries.
# Test system: MILI (PIWIL2) piRISC loaded with piRNA #2 (26 nt)
# Assay: pre-steady-state target cleavage rate (min^-1); MIWI and MILI are mouse PIWI proteins and EfPiwi is from a freshwater sponge; tags in brackets are library labels; higher = faster piRNA-guided slicing of the target
# Settings: guide: piRNA #2 5'p-UUAGGUAACCCAGUAGAUCCAGAGGA; auxiliary factor: 500 nM mouse GTSF1
# Outline: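 Using HEPES–potassium acetate buffer at 33 °C, 1 nM active affinity-purified piRISC with a single synthetic guide was mixed with 0.1 nM transcribed, DNA-blocked target RNA library for 0–8 or 0–960 min, with or without 500 nM GTSF1 partner protein. Uncleaved targets were sequenced and normalised to depth and to weakly complementary targets, and three trials were pooled with k3 capped at 0.0001 min^-1. A burst-and-steady-state fit gave the pre-steady-state cleavage rate.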
row,Sequence,pre-steady-state target cleavage rate
1,CUUAAGGUGUGGAUCUACUCGGUUACCUAA,0.000532 ± 0.027
2,CUUAAGCUCUGGAUCUACGUGGGUUACCUAA,0.000368 ± 0.015
3,CUUAAGGAGACCAUCUACUGGGUUACCUCAA,0.00082 ± 0.011
4,CUUAAGGACUGGAUCUUGUGGGUUACCUAA,0.00558 ± 0.0059
5,CUUAAGGAGAGGAUCUACUGGGUUCCUAA,0.000286 ± 0.015
6,CUUAAGCUCUGGAUCAACUGGGUUACCUUA,0.0336 ± 0.011
7,CUUAUCGUCUGGAUCUACUCGGUUACCUAA,0.00107 ± 0.011
8,CUUAAGCUCUGGAUCUACUGGUGUUACCUAA,0.00019 ± 0.031
9,CUUAAGGAGACCUAGAACUGGGUUACCUAAA,0.000112 ± 0.058
10,CUUAAGGUCUGGAUCUACAUGGGUUACCUAA,0.000967 ± 0.0068
11,CUUAAGGAGACGAUCUUCUGGGUUACCUUA,0.00171 ± 0.0064
12,CUUAUCCUCUGGUUCUUCUGGGUUACCUAA,0.338 ± 0.088
13,CUUAUCCUCUGGAUCUACUGGGUUACCUUA,0.13 ± 0.026
14,CUUAACCUCUGGAUCUACUGCGGUUACCUAA,0.00113 ± 0.0083
15,CUUAAGGACUGCAUCUACUCGGUUACCUAA,0.00137 ± 0.013
16,CUUAUCCUCUGGAACUACUGGGUUUCCUAA,1.1 ± 0.56
17,CUUAAGGAGAGGAUCUACAGGGUUACCUUA,0.0102 ± 0.0051
18,CUUAUCCUCUGCAUCUACUGGGUUUCCUAA,0.165 ± 0.071
19,CUUAAGGAGUCCUUCUACUGGGUUACCUAA,0.00105 ± 0.0064
20,CUUAAGGAGACCUUCUACUGGGUAAGCUAA,0.00059 ± 0.016
21,CUUAAGGAGACGAUGUACUGGGUUACCUAA,0.00152 ± 0.0041
22,CUUAAGCUCUGGAUCAACUCGGUUACCUAA,0.000699 ± 0.014
23,CUUAAGGAGAGGAUCUACUGGCGUUACCUAA,0.000306 ± 0.02
24,CUUAAGGAGAGGAUCUACAGGGUUUCCUAA,0.00294 ± 0.0038

row,Sequence,pre-steady-state target cleavage rate
1,CUUAAGGAGACCAUGUACUGGGUUACCAAA,0.000276 ± 0.025
2,CUUAAGGACUGCAUCAACUGGGUUACCUAA,0.00274 ± 0.012
3,CUUAAGGAGACCAUCAACAGGGUUACCUAA,0.00058 ± 0.014
4,CUUAAGGUCUGGAUCUACUGGUGUUACCUAA,0.000246 ± 0.017
5,CUUAAGGAGACGUUCUACUGGGAUACCUAA,0.000105 ± 0.045
6,CUUAAGGAGUGGAUCUACUGGGUUACUCUAA,0.0036 ± 0.0042
7,CUUAAGGAGUGGAUCUAGUGCGUUACCUAA,0.00114 ± 0.0087
8,CUUAAGGAGUGGAUCUAGUGGGAUACCUAA,0.000914 ± 0.013
9,CUUAAGGAGACCUAGAUGACGGUUAACCUAA,0.000127 ± 0.043
10,CUUAAGCUGUGGAUCUACUGGGUUACCAAA,0.00345 ± 0.0054
11,CUUAAGGAGAGGAUCUUGAGGGUUACCUAA,0.000121 ± 0.04
12,CUUAACCUCUGGAUCUACUGGGUUUACCUAA,0.0817 ± 0.019
13,CUUAAGCUCUGGAUCUUCUCGGUUACCUAA,0.00105 ± 0.0073
14,CUUAAGGAGACCUACUACUGGGUUAUCUAA,0.000538 ± 0.013
15,CUUAAGGAGACCUAGUACGUGGGUUACCUAA,0.000264 ± 0.043
16,CUUAACCUCUGGAUCUACUGGGUUAGGAAA,0.00266 ± 0.005
17,CUUAAGGACUGGAUCUUCUGGGAUACCUAA,0.00398 ± 0.009
18,CUUAAGGAGACCUAGAUGUGGGUUACACUAA,0.000265 ± 0.027
19,CUUAACCUCUGGAUCUUCUGGGUUACCUAA,0.0795 ± 0.017
20,CUUAAGGAGACGAUCUACUGGGCUACCUAA,0.000478 ± 0.014
21,CUUAAGGAGACCAUUACUGGGUUACCUAA,0.000922 ± 0.0094
22,CUUAAGGAGAGGAUCUACUGGGUUACCCAA,0.00218 ± 0.0056
23,CUUAAGGAGUAGGAUCUACUGGGUUACCUAA,0.00494 ± 0.0041
24,CUUAAGCUCUGGAUCUUCUGGGUUUCCUAA,0.0561 ± 0.017

row,Sequence,pre-steady-state target cleavage rate
1,CUUAUCCUCUGGUUGUACUGGGUUACCUAA,0.151 ± 0.031
2,CUUAAGGACUGGAUCUACUGGGUUACGAAA,0.00358 ± 0.0093
3,CUUAAGGAGACCUACAACUGGGUUAGCUAA,0.000142 ± 0.065
4,CUUAAGGAGACCUAGUUCAGGGUUACCUAA,0.00031 ± 0.019
5,CUUAAGGAGACGUUCUACUGCGUUACCUAA,0.00069 ± 0.0086
6,CUUAAGGAGACCUAGAUGACCGUUACCAAA,0.000494 ± 0.014
7,CUUAAGGAGACCUUGUAGUGGGUUACCUAA,0.000252 ± 0.025
8,CUUAAGGAGACCUUCUGACUGGGUUACCUAA,0.000175 ± 0.03
9,CUUAAGGUGUGGAUCUACUGGGUUAGCUAA,0.00124 ± 0.0083
10,CUUAAGGACUGGAUCUUCUGGGUUACGUAA,0.00361 ± 0.01
11,CUUAAGGAGACGAUCUACCGGGUUACCUAA,0.0014 ± 0.007
12,CUUAAGGAGUGGAUCUUCUGGGAUACCUAA,0.00198 ± 0.0074
13,CUUAAGGAGACCUAGUACUGGGAUACCUAA,0.000231 ± 0.024
14,CUUAUCCUCUGGUCUACUGGGUUACCUAA,0.983 ± 0.34
15,CUUAAGGAGACCAUCCACUGGGUUACCUAA,0.0018 ± 0.006
16,CUUAAGGAGUGGAUCUACUAGGGUUACCUAA,0.00079 ± 0.0081
17,CUUAAGGAGACCAUCUACUGGGGUUACCUAA,0.00112 ± 0.0075
18,CUUAAGGAGACGAUCUACAGGGAUACCUAA,0.00223 ± 0.0053
19,CUUAUGCUCUGGAUCUACUCGGUUACCUAA,0.00216 ± 0.0039
20,CUUAAGGAGACCUUCUACUAGGUUACCUAA,0.000727 ± 0.011
21,CUUAAGGAGUGGAUCUACUCGGUUACCUAA,0.000639 ± 0.024
22,CUUAAGGAGACCAUCUAUUGGGUUACCUAA,0.00124 ± 0.0086
23,CUUAAGGAGACCUACUACUGGGUUAACUAA,0.00035 ± 0.021
24,CUUAAGGAGACCUACUACUGGGAUUACCUAA,0.00119 ± 0.0088

# 2 entries picked at random from the list so far:
row,Sequence,pre-steady-state target cleavage rate
14,CUUAACCUCUGGAUCUACUGCGGUUACCUAA,0.00113 ± 0.0083
24,CUUAAGCUCUGGAUCUUCUGGGUUUCCUAA,0.0561 ± 0.017
